These are yes or no findings as the source states them, for the method shown.

Sequences of proteins named here, by UniProt entry; tags and fusion partners are left off. A change or cut given only in a name is not applied to a line headed by its entry. Residues count along the entry.
UniProt P02769, residues 25-607: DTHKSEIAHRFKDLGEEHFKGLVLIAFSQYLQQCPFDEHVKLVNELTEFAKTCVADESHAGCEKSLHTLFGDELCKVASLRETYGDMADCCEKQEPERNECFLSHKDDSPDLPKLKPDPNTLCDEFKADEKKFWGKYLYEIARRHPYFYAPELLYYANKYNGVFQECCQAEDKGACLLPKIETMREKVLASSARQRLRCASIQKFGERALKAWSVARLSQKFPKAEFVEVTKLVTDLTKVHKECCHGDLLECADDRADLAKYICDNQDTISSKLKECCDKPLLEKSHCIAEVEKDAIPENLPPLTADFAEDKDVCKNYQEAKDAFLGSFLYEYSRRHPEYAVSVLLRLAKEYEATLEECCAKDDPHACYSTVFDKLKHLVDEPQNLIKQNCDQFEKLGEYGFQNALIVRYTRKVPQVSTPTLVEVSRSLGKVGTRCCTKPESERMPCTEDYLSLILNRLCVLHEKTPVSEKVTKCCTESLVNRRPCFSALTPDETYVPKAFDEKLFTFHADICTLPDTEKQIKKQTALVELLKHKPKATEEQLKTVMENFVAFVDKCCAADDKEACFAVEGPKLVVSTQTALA
UniProt P04003: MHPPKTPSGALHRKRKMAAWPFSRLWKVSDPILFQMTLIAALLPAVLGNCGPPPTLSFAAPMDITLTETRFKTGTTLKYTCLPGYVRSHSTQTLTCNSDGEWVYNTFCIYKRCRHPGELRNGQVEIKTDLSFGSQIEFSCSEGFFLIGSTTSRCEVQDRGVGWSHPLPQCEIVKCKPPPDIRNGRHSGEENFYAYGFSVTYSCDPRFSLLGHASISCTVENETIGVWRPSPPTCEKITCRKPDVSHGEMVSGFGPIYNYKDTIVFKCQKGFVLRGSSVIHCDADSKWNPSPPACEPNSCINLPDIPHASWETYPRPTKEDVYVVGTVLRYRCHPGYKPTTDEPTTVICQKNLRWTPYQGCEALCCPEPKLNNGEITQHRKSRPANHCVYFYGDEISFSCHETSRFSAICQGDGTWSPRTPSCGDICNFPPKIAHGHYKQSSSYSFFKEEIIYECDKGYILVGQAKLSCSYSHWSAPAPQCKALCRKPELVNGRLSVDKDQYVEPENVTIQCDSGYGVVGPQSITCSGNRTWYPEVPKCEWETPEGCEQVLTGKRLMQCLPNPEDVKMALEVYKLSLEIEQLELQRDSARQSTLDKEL

This experiment addresses bovine serum albumin (bovine) (UniProt P02769). Description: ELISA; plates coated with recombinant proteins (1 μg/ml) or BSA; blocked with PBS/2% BSA; normal human serum (0–100% in PBS) for 90 min at 37°C; detected with anti-FH, anti-C4BP or anti-PLG and HRP conjugate, read at 450 nm; only the target purified. In general terms: ELISA stands for enzyme-linked immunosorbent assay.

As to “C4 Binding Protein (from UniProt P04003 49-597; P20851 18-252) (complex)”, the binding entry is “no binding”.

(Values after PMC8988195.)
